Measurements reported in PubChem BioAssay AID1259301 (Sanger Institute, 2017)

- Test: 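Kinases whose silencing adds to BYL719, cetuximab or trametinib effects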 (secondary rescreen of primary hits using four separate siRNAs per gene)
- Cell system: LS180 human colorectal cancer cells
- Reagent: single siRNA against human genes
- Challenge: anchor drug BYL719 at 1 µM, cetuximab at 5 µg/ml or trametinib at 10 nM, each against a DMSO vehicle arm
- Read-out: 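Replicate mean of viability versus control pool 2 (non-targeting), and for every anchor drug a synergy score assessed against the drug by itself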
- Reading the numbers: synergy score with BYL719 and synergy score with cetuximab and synergy score with trametinib: higher = stronger synergistic (synthetic lethal) killing; viability with siRNA alone (DMSO): higher = more cells survive
- Call rule: 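a gene is called when its synergy score is above 0.10 for one or more of the three anchor drugs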
- Meaning of the calls: active = synergy with at least one drug; inactive = no synergy with any drug
Here is an unselected part of 160 deposited reagents. 67 of all reagents (42%) count as active. 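Calls rest on synergy in any drug arm, not on siRNA-alone viability; rescreen tested four distinct siRNAs for each gene.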 The numbers tell different reagents against one gene apart. Not given: the amount of reagent, the time to read-out.

| target gene | reagent no. | synergy score with BYL719 | synergy score with cetuximab | synergy score with trametinib | viability with siRNA alone (DMSO) (fraction of control) | call |
| --- | --- | --- | --- | --- | --- | --- |
| PAK1 | 1 | -0.117 | 0.116 | 0.119 | 0.823 | active |
| PAK1 | 2 | -0.00322 | 0.122 | 0.0561 | 0.687 | active |
| PAK1 | 3 | -0.00384 | 0.1 | 0.0543 | 0.58 | active |
| PAK1 | 4 | -0.197 | -0.0855 | 0.0782 | 0.7 | inactive |
| IRAK3 | 1 | 0.0992 | -0.0071 | 0.107 | 0.667 | active |
| IRAK3 | 2 | -0.0684 | 0.0423 | -0.0033 | 0.854 | inactive |
| IRAK3 | 3 | -0.161 | -0.05 | -0.0869 | 0.445 | inactive |
| IRAK3 | 4 | 0.0528 | -0.0436 | 0.0782 | 0.79 | inactive |

Copied from above for reference:
| target gene | reagent no. | synergy score with BYL719 | synergy score with cetuximab | synergy score with trametinib | viability with siRNA alone (DMSO) (fraction of control) | call |
| --- | --- | --- | --- | --- | --- | --- |
| PAK1 | 1 | -0.117 | 0.116 | 0.119 | 0.823 | active |
| PAK1 | 2 | -0.00322 | 0.122 | 0.0561 | 0.687 | active |

Continued:
| target gene | reagent no. | synergy score with BYL719 | synergy score with cetuximab | synergy score with trametinib | viability with siRNA alone (DMSO) (fraction of control) | call |
| --- | --- | --- | --- | --- | --- | --- |
| CHD4 | 1 | 0.0773 | -0.047 | 0.15 | 0.605 | active |
| CHD4 | 2 | -0.0774 | 0.12 | 0.103 | 0.581 | active |
| CHD4 | 3 | 0.0266 | 0.117 | 0.113 | 0.672 | active |
| CHD4 | 4 | 0.0148 | 0.197 | 0.125 | 0.763 | active |
